Reference: patent US20180021773A1, “ASSAY DEVICES, METHODS FOR CARRYING OUT ASSAYS, ASSAY KITS AND METHOD FOR MANUFACTURING ASSAY DEVICES” (Loughborough University, priority 2014, published 2018)
Several values for one entry are separate records, joined by “and”; a condition that tells them apart may be missing. Equal entries are not always repeated. For at least one compound, name, drawing or mass did not settle the structure.

Columns and labels:
[1] = system: E. coli (ATCC accession number: 25922); test: ONPG loaded test strips dipped into bacterial culture, yellow colour; assay type: cell-based
Description: A 10 bore FEP microcapillary film was internally coated with cross-linked PVA. Test microcapillary film was prepared by first loading the capillaries with ONPG by filling the capillaries with a 150 mg·mL^−1 ONPG substrate solution in DMF and incubating for 5 minutes. The substrate solution was then removed and the microcapillary film air dried using a syringe to pass air repeatedly through the capillaries. Seven test strips were cut from this ONPG loaded microcapillary film and dipped into one of 7 different aqueous samples. These comprised water (1); sterile Luria-Bertani lysogeny broth (LB) media (2); a 0.1 U/μl solution of β-galactosidase enzyme (3); an overnight culture of E. coli (ATCC accession number: 25922) suspended in LB (4); an overnight culture of Salmonella typhimurium (strain SL3261) suspended in LB (5); an overnight culture of E. coli suspended in a phosphate buffer saline PBS (6); an overnight culture of S. typhimurium suspended in PBS (7). Negative control test strips consisting of PVA coated cross-linked PVA but not loaded with ONPG were dipped into the same samples (referred hereafter as no substrate). As a comparison, similar assays were also performed in 96 well-plates with ONPG substrate solution (final concentration 1 mg·ml^−1) added to the different samples in a final volume of 100 μl.
When the ONPG loaded cross-linked PVA coated MCF test strips were used, a similar pattern of yellow colour production was observed. When dipped into samples, test strips rapidly sucked up aqueous samples into all capillaries, as expected. After 5 minutes incubation, strips dipped into sample (3) turned yellow, indicating a rapid reaction between ONPG and the positive control beta-galactosidase enzyme solution. In contrast, no other test strip changed colour, indicating as expected that neither LB broth, nor bacterial suspensions, contained beta-galactosidase enzyme. However, test strips dipped into overnight cultures of E. coli (suspensions (4) and (6)), turned dark yellow, indicating the presence of beta-galactosidase enzyme.
Overnight cultures of E. coli and S. typhimurium were diluted 1:100 in LB broth with the inclusion of the beta-galactosidase inducer IPTG (final concentration 1 mM) for 3 hours, and then tested using OPNG loaded FEP microcapillary test strips coated with cross-linked PVA.
As above, test strips were loaded with ONPG and tested by dipping into samples of either no bacteria, IPTG-cultured E. coli, or IPTG-cultured S. typhimurium. The colour of the ONPG-loaded test strips dipped into these three samples was examined after 1 hour incubation at 37 degrees C.

[2] = Fluorescein released into water in loaded strips, fluorescence imaging; assay type: physicochemical; conditions: for fluorescein released: 4 cm from dipped end, 10 cm strips; for Fluorescein concentration: loaded 100 μg/mL in water 5 min, per capillary 1-10

| SMILES | yellow colour, ONPG loaded capillaries ([1]; sample (4) E. coli in LB broth, 5 min) | yellow colour, ONPG loaded capillaries ([1]; sample (4) E. coli in LB broth, Overnight) | yellow colour, ONPG loaded capillaries ([1]; sample (6) E. coli in PBS, 5 min) | yellow colour, ONPG loaded capillaries ([1]; sample (6) E. coli in PBS, Overnight) | fluorescein released ([2]; 0% glycerol in 100 μg/ml loading solution) [µg/mL] | fluorescein released ([2]; 10% v/v glycerol in 100 μg/ml loading solution) [µg/mL] | fluorescein released ([2]; 50% v/v glycerol in 100 μg/ml loading solution) [µg/mL] | fluorescein released ([2]; 80% v/v glycerol in 100 μg/ml loading solution) [µg/mL] | Fluorescein concentration ([2]; Test strip 1, distance from inlet 60 mm) | Fluorescein concentration ([2]; Test strip 2, distance from inlet 70 mm) |
| --- | --- | --- | --- | --- | --- | --- | --- | --- | --- | --- |
| O=[N+]([O-])c1ccccc1O[C@@H]1O[C@H](CO)[C@H](O)[C@H](O)[C@H]1O [ONPG, ortho-nitrophenyl-β-galactoside] | − | + | − | + |  |  |  |  |  |  |
| O=C1OC2(c3ccc(O)cc3Oc3cc(O)ccc32)c2ccccc21 [Fluorescein, fluorescein] |  |  |  |  | 1.9 | 4.5 | 6.3 | 14.4 | 1.0 µg/mL and 1.1 µg/mL and 1.4 µg/mL and 1.2 µg/mL and 1.9 µg/mL | 1.3 µg/mL and 1.1 µg/mL and 1.4 µg/mL and 1.0 µg/mL |
